Measurements reported in PubChem BioAssay AID1259267 (Sanger Institute, 2017)
Here is one part, drawn at random, of 794 deposited reagents. Over the whole deposit, 9 (1.1%) are marked active. 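Viability capped at 1; calls reflect loss of viability from knock-down alone, not synergy with drugs.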 Entries without a mark were called inactive. Further read-outs or replicates are left out here. Not stated in the record: the amount of reagent, the time to read-out.

Aim: 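Kinase and colorectal-mutated gene knock-downs lethal to GP5D cells alone or with drugs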 (primary screen)
Cells: human GP5D colorectal cancer cells
Knock-down reagent: siRNA pool against human genes
Challenge: anchor drugs at low dose: BYL719 1 µM, cetuximab 5 µg/ml, trametinib 10 nM, or DMSO vehicle
Measurement: 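Viability against non-targeting pool, replicate mean: robust z-score for knock-down alone, fraction with DMSO, synergy with BYL719 1 µM, cetuximab 5 µg/ml, trametinib 10 nM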
Scale: robust z-score, knock-down alone: higher = more viable cells
Rule for the call: 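Active (essential alone) if knock-down without drug gives robust z-score under -3; drug synergy does not count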
Meaning of the calls: active = essential alone; inactive = not essential

Depletion of MAPK14 (mitogen-activated protein kinase 14) resulted in: robust z-score, knock-down alone 0.817. CDKN1A (cyclin dependent kinase inhibitor 1A) showed robust z-score, knock-down alone 0.817. DGKB (diacylglycerol kinase beta) gave robust z-score, knock-down alone -0.837. MAGI1 gave robust z-score, knock-down alone 0.0201. Knock-down of PLK1 (polo like kinase 1) gave: robust z-score, knock-down alone -3 (active). Depletion of PDK2 (pyruvate dehydrogenase kinase 2) gave: robust z-score, knock-down alone 0.778.

INSR (insulin receptor) scored robust z-score, knock-down alone -0.872. Against CALM2 (calmodulin 2), the entry reads robust z-score, knock-down alone -0.623. After knock-down of KALRN (kalirin RhoGEF kinase), the record shows robust z-score, knock-down alone 0.00661. For CDK17 (cyclin dependent kinase 17), the entry reads robust z-score, knock-down alone 0.363. PASK (PAS domain containing serine/threonine kinase) scored robust z-score, knock-down alone -1.31. LMTK1 (lemur tail kinase 1) showed robust z-score, knock-down alone -2.71.

With knock-down of PAPSS1 (3'-phosphoadenosine 5'-phosphosulfate synthase 1) the results were robust z-score, knock-down alone 0.817. MAPK6 (mitogen-activated protein kinase 6) showed robust z-score, knock-down alone 0.207. Depletion of PRKACA (protein kinase cAMP-activated catalytic subunit alpha) came out at: robust z-score, knock-down alone 0.477. For MYLK4 (myosin light chain kinase family member 4), the entry reads robust z-score, knock-down alone 0.817. For MYLK3 (myosin light chain kinase 3) the deposit lists robust z-score, knock-down alone -0.178. Knock-down of CDK2 (cyclin dependent kinase 2) resulted in: robust z-score, knock-down alone 0.528.

Knock-down of PLK3 (polo like kinase 3) came out at: robust z-score, knock-down alone -1.08. CAMK1 (calcium/calmodulin dependent protein kinase I) showed robust z-score, knock-down alone -0.576. Knock-down of CRKL (CRK like proto-oncogene, adaptor protein) came out at: robust z-score, knock-down alone 0.817. After knock-down of PRKCH (protein kinase C eta), the record shows robust z-score, knock-down alone 0.817. After knock-down of GNE the results were robust z-score, knock-down alone 0.817. ABL1 (ABL proto-oncogene 1, non-receptor tyrosine kinase) gave robust z-score, knock-down alone 0.817.

NRBP2 (nuclear receptor binding protein 2) gave robust z-score, knock-down alone -2.83. Against PKN1 (protein kinase N1) the deposit lists robust z-score, knock-down alone 0.525. Silencing of PKN3 (protein kinase N3) came out at: robust z-score, knock-down alone 0.817. With knock-down of KCNH2 (potassium voltage-gated channel subfamily H member 2), the record shows robust z-score, knock-down alone -2.02.

Look-ups from above.
Under “robust z-score, knock-down alone”, PRKCH (protein kinase C eta) has 0.817
For “robust z-score, knock-down alone”, PKN1 (protein kinase N1) is entered as 0.525
